Patent publication US20250361311A1
These are yes or no findings as the source states them, for the method shown. Some results given as binding are weak or reduced against the parent protein; the word gives no strength.

Biological target: T1, soluble recombinant human TL1A trimer (human) (UniProt O95150)
T1 sequence (looked up): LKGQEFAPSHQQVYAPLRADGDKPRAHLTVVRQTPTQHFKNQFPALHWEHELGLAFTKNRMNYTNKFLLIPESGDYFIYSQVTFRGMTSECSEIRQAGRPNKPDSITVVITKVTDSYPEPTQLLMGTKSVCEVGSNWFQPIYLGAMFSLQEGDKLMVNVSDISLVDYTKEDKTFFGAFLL
Test: BLI, Fab at 200 nM on immobilized TL1A trimer, 25 C

B1: 70416_041[TL1A]H1L1 Fab (Fab, V domains shown)
VH: QVQLVQSGAEVKKPGASVKVSCKVSGFSVTSYNVHWVRQAPGQGLEWMGVMWSGGNTDYNSKFQGRVTMTRDTSTNTVYMELSSLRSEDTAVYYCARAGRYYHDSNYYWDFPYWGQGTLVTVSS
VL: DIQMTQSPSSVSASVGDRVTITCRASEDIYSGLAWYQQKPGKSPKLLIYGASSLQDGVPSRFSGSGSGTDYTLTISSLQPEDFATYFCQEGLKSPYTFGAGTKLEIK
  binding: binds
